From PubChem BioAssay record AID504749 (NCATS, 2011).

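Malaria parasite (P. falciparum) lines kept in red blood cells; parasite DNA is measured by SYBR Green fluorescence after lysis, 72 h after compound addition.
Each compound was titrated across a series from about 0.000037 to 29 µM.
The number is the fitted AC50, the concentration giving a half-maximal change in signal; a lower value means higher potency, whether the curve shows a decrease or an increase.
Calls follow the curve class and fit quality: every row here is inconclusive, covering signal-raising curves and weak, poorly fitted, partial or highest-dose-only inhibition curves.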

Values are in nM.
Every entry below has the call inconclusive.
These entries are mostly ones the record files as inconclusive; other results of the assay are not listed here.
A potency from a partial, single-point or poor curve is only a rough figure.

For COCCCC/C(=N\OCCN)c1ccc(C(F)(F)F)cc1 [CP238] the result was potency 10000 nM (inhibitor, partial curve). COCCCC/C(=N\OCCN)c1ccc(C(F)(F)F)cc1 [AS120] read potency 14125 nM (inhibitor, partial curve, poor fit). For COCCCC/C(=N\OCCN)c1ccc(C(F)(F)F)cc1 [CP286] the result was potency 8912 nM (inhibitor, partial curve). For COc1cc(/C=C/C(=O)/C=C(O)/C=C/c2ccc(O)c(OC)c2)ccc1O [CP203] the result was potency 19011 nM (inhibitor, single point). Result for COc1cc(/C=C/C(=O)/C=C(O)/C=C/c2ccc(O)c(OC)c2)ccc1O [CP268] was potency 19011 nM (inhibitor, single point). COc1cc(/C=C/C(=O)/C=C(O)/C=C/c2ccc(O)c(OC)c2)ccc1O [7G8] read potency 10000 nM (inhibitor, partial curve). COc1cc(/C=C/C(=O)/C=C(O)/C=C/c2ccc(O)c(OC)c2)ccc1O [PAD] gave potency 5012 nM (inhibitor, single point). COc1cc(/C=C/C(=O)/C=C(O)/C=C/c2ccc(O)c(OC)c2)ccc1O [CP237] read potency 17782 nM (inhibitor, single point).

COc1cc(/C=C/C(=O)/C=C(O)/C=C/c2ccc(O)c(OC)c2)ccc1O [AS120] gave potency 11220 nM (inhibitor, single point). Result for COc1cc(/C=C/C(=O)/C=C(O)/C=C/c2ccc(O)c(OC)c2)ccc1O [CP265] was potency 11220 nM (inhibitor, single point). With COc1cc(/C=C/C(=O)/C=C(O)/C=C/c2ccc(O)c(OC)c2)ccc1O [3D7] the assay gave potency 11220 nM (inhibitor, single point). COc1cc(/C=C/C(=O)/C=C(O)/C=C/c2ccc(O)c(OC)c2)ccc1O [DIV14] gave potency 13459 nM (inhibitor, single point). Result for COc1cc(/C=C/C(=O)/C=C(O)/C=C/c2ccc(O)c(OC)c2)ccc1O [CP329] was potency 19011 nM (inhibitor, single point). Result for COc1cc(/C=C/C(=O)/C=C(O)/C=C/c2ccc(O)c(OC)c2)ccc1O [CP250] was potency 17782 nM (inhibitor, single point). With COc1cc(/C=C/C(=O)/C=C(O)/C=C/c2ccc(O)c(OC)c2)ccc1O [CP215] the assay gave potency 19011 nM (inhibitor, single point). Result for COc1cc(/C=C/C(=O)/C=C(O)/C=C/c2ccc(O)c(OC)c2)ccc1O [Dd2] was potency 11220 nM (inhibitor, partial curve).

COc1cc(/C=C/C(=O)/C=C(O)/C=C/c2ccc(O)c(OC)c2)ccc1O [CP260] read potency 17782 nM (inhibitor, single point). COc1cc(/C=C/C(=O)/C=C(O)/C=C/c2ccc(O)c(OC)c2)ccc1O [P94_40] gave potency 17782 nM (inhibitor, single point). Result for COc1cc(/C=C/C(=O)/C=C(O)/C=C/c2ccc(O)c(OC)c2)ccc1O [C2A] was potency 10000 nM (inhibitor, single point). For COc1cc(/C=C/C(=O)/C=C(O)/C=C/c2ccc(O)c(OC)c2)ccc1O [CP315] the result was potency 19011 nM (inhibitor, single point). For COc1cc(/C=C/C(=O)/C=C(O)/C=C/c2ccc(O)c(OC)c2)ccc1O [CP269] the result was potency 19011 nM (inhibitor, single point). COc1cc(/C=C/C(=O)/C=C(O)/C=C/c2ccc(O)c(OC)c2)ccc1O [CP191] read potency 11220 nM (inhibitor, single point). For COc1cc(/C=C/C(=O)/C=C(O)/C=C/c2ccc(O)c(OC)c2)ccc1O [DIV30] the result was potency 16944 nM (inhibitor, single point). COc1cc(/C=C/C(=O)/C=C(O)/C=C/c2ccc(O)c(OC)c2)ccc1O [CP192] gave potency 19011 nM (inhibitor, single point).

COc1cc(/C=C/C(=O)/C=C(O)/C=C/c2ccc(O)c(OC)c2)ccc1O [CP247] gave potency 7080 nM (inhibitor, partial curve, poor fit). Result for COc1cc(/C=C/C(=O)/C=C(O)/C=C/c2ccc(O)c(OC)c2)ccc1O [AA1029] was potency 12589 nM (inhibitor, single point). Result for COc1cc(/C=C/C(=O)/C=C(O)/C=C/c2ccc(O)c(OC)c2)ccc1O [CP194] was potency 16944 nM (inhibitor, single point). For COc1cc(/C=C/C(=O)/C=C(O)/C=C/c2ccc(O)c(OC)c2)ccc1O [CP252] the result was potency 17782 nM (inhibitor, single point). With COc1cc(/C=C/C(=O)/C=C(O)/C=C/c2ccc(O)c(OC)c2)ccc1O [GB4] the assay gave potency 15101 nM (inhibitor, single point). COc1cc(/C=C/C(=O)/C=C(O)/C=C/c2ccc(O)c(OC)c2)ccc1O [TAB165] read potency 17782 nM (inhibitor, single point). With COc1cc(/C=C/C(=O)/C=C(O)/C=C/c2ccc(O)c(OC)c2)ccc1O [CP291] the assay gave potency 10690 nM (inhibitor, single point). COc1cc(/C=C/C(=O)/C=C(O)/C=C/c2ccc(O)c(OC)c2)ccc1O [CP286] read potency 17782 nM (inhibitor, single point).

For COc1cc(/C=C/C(=O)/C=C(O)/C=C/c2ccc(O)c(OC)c2)ccc1O [N140] the result was potency 17782 nM (inhibitor, single point). For COc1cc(/C=C/C(=O)/C=C(O)/C=C/c2ccc(O)c(OC)c2)ccc1O [P93_24] the result was potency 17782 nM (inhibitor, single point).

For reference, 3 entries once more:

With COc1cc(/C=C/C(=O)/C=C(O)/C=C/c2ccc(O)c(OC)c2)ccc1O [CP215] the assay gave potency 19011 nM (inhibitor, single point).
With COc1cc(/C=C/C(=O)/C=C(O)/C=C/c2ccc(O)c(OC)c2)ccc1O [CP252] the assay gave potency 17782 nM (inhibitor, single point).
With COc1cc(/C=C/C(=O)/C=C(O)/C=C/c2ccc(O)c(OC)c2)ccc1O [CP265] the assay gave potency 11220 nM (inhibitor, single point).